# Reference: PubChem BioAssay AID2685 (National Center for Advancing Translational Sciences (NCATS), 2010)
# The other results are listed elsewhere or left out. These are further read-outs of the screen, such as a control signal, another cell line or another target. No call is given for them. Most of these compounds were active or inconclusive in the main read-out, so they are no random draw. Words in brackets tell the shape of the fitted curve; partial curves, single points and poor fits give uncertain potencies.
# Assay: qHTS Assay for Lipid Storage Modulators in Drosophila S3 Cells;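 on cell number change: cells counted by Cell Tracker Red CMTPX staining in the red channel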
# Settings: BODIPY lipid droplet fluorescence, 18-24 h; for cell number change: measured here: cell count max response, cells fed with added oleic acid
# Procedure, shortened: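 Laser-scanning cytometry quantifies lipid droplet accumulation (500–530 nm total intensity; droplet/cell object ratio) in oleic acid-fed (400 uM added) Drosophila S3 cells treated with a concentration series. 20 uM Triacsin C defined 100% inhibition.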
# [1] = measured here: cell number channel AC50, cells fed with added oleic acid
# [2] = measured here: lipid fluorescence (Fed channel) AC50, cells fed with added oleic acid
SMILES,AC50 [1],cell number change [%],AC50 [2]
Cc1ccc(S(=O)(=O)c2nc(-c3ccco3)oc2SCC(=O)NCC2CCCO2)cc1 (stereo not drawn),"0.116 µM [rising, full curve, poor fit]",–,–
O=C(Cn1cnc2c(nnn2-c2cccc(F)c2)c1=O)Nc1ccc2c(c1)OCCO2,–,15.1,–
O=C(NCc1ccc2c(c1)OCO2)c1ccc(S(=O)(=O)N2CCCCC2)cc1,–,19.3,"14.6 µM [rising, partial curve]"
Cc1nccc2oc(=O)c(NC(=O)c3ccc(Cl)cc3)cc12,"6.51 µM [rising, single point]",5.22,–
Cc1cc(=O)[nH]c2nnc(SCC(=O)N3CC(C)OC(C)C3)n12 (stereo not drawn),"25.9 µM [falling, single point]",-52.1,"25.9 µM [falling, single point]"
Fc1cccc(Cc2noc(CN3CCN(c4cnccn4)CC3)n2)c1,–,8.46,"0.58 µM [rising, full curve, poor fit]"
COCCCNCC1C(Oc2ccc(Cl)cc2)C(=O)N1c1ccccc1C (stereo not drawn),–,-9.05,"29.1 µM [rising, single point]"
CN(NC(=O)c1c(Cl)cccc1Cl)c1cccc(Cl)n1,"32.6 µM [falling, single point]",-32.9,–
COc1ccccc1C/C(N)=N/OC(=O)c1ccco1,–,7.4,"6.51 µM [falling, single point]"
CCN1C(=O)S/C(=C/c2ccc(Sc3nc4ccccc4[nH]3)o2)C1=O,–,-20.7,"18.4 µM [falling, single point]"
COc1ccc(OCCn2c(C)c(/C=N/n3cnnc3)c3ccccc32)cc1,"32.6 µM [falling, single point]",-32.7,–
O=C(c1ccccc1)c1ccc(OCC(O)CN2CCN(S(=O)(=O)N3CCCCC3)CC2)cc1 (stereo not drawn),"5.17 µM [rising, full curve]",62.3,"7.31 µM [rising, partial curve]"
CCOc1ccc(Cc2nnc(SCC(=O)Nc3ccc(OC)cc3)n(N)c2=O)cc1,"20.6 µM [rising, partial curve]",69,–
O=C(N/N=C/c1c[nH]c2ccccc12)c1ccc(Br)cc1,"20.6 µM [falling, single point]",-36.8,"14.6 µM [falling, partial curve, poor fit]"
O=C(Nc1sc2c(c1C(=O)O)CCCC2)c1ccccc1Cl,"3.26 µM [rising, partial curve]",42.3,"25.9 µM [rising, single point]"
CCC(=O)N1CCc2cc(S(=O)(=O)NCCC(=O)N3CCN(c4cccc(C)c4)C(C)C3)ccc21 (stereo not drawn),"1.64 µM [rising, partial curve, poor fit]",-7.6,"6.51 µM [rising, single point]"
O=C(NNC(=O)c1ccc([N+](=O)[O-])o1)c1ccccc1,–,18,–
CS(=O)(=O)N1CCN(c2nc3ccccc3s2)CC1,–,-10,"6.51 µM [rising, full curve, poor fit]"
CCc1ccc(-c2cc(C)no2)cc1S(=O)(=O)N1CCN(c2ccccc2)CC1,"6.51 µM [rising, single point]",5.19,"6.51 µM [rising, single point]"
COC(=O)Cn1c2ccccc2c2nc3ccccc3nc21,–,4.21,"29.1 µM [falling, single point]"

SMILES,AC50 [1],cell number change [%],AC50 [2]
N#Cc1ccccc1Sc1ccccc1C(=O)Nc1ccc(Br)cc1,"0.146 µM [rising, full curve, poor fit]",148,"29.1 µM [rising, single point]"
CN(Cc1ccccc1)C(=O)c1nc2ccccn2c1CNCCCOc1cccnc1,–,10.2,"0.103 µM [rising, full curve, poor fit]"
N#Cc1cc(Oc2ccc3ccccc3c2)c(-n2nnc3ccccc32)cc1C#N,"2.91 µM [rising, partial curve]",12.5,"5.8 µM [rising, partial curve]"
Cc1ccccc1-c1nn(-c2ccc(F)cc2F)cc1CNCCCO,–,13.6,"2.91 µM [rising, partial curve, poor fit]"
Cc1cccc(NCC(=O)N/N=C\c2cccc(Oc3ccccc3)c2)c1,–,-25.4,"25.9 µM [falling, single point]"
O=C(Nc1ccc(F)cc1)c1cc(S(=O)(=O)N2CCOCC2)cs1,–,-8.42,"29.1 µM [falling, single point]"
O=C(c1ccc(N2CCOCC2)cc1[N+](=O)[O-])N1CCOCC1,–,14,"2.06 µM [rising, partial curve, poor fit]"
COc1ccc(-c2nc3n(n2)C(=O)CC(c2ccco2)S3)cc1 (stereo not drawn),–,-24.5,"29.1 µM [falling, single point]"
COc1ccc2oc(=O)cc(CN(C)Cc3ccccc3)c2c1,–,-1.23,"18.4 µM [falling, single point]"
Cc1ccc(S(=O)(=O)n2nc(OC(=O)C(C)(C)C)cc2N)cc1,–,3,"4.11 µM [falling, full curve, poor fit]"
c1ccc(N2CCN(Cc3nnnn3C3CCCCC3)CC2)cc1,–,-2.93,"0.00517 µM [rising, full curve, poor fit]"
O=C(Nc1ccncc1)c1ccccc1[N+](=O)[O-],–,8.5,"6.51 µM [falling, single point]"
CCOc1ccccc1Nc1nc2ccccc2[nH]1,"3.26 µM [falling, partial curve]",–,–
O=C(O)C1C2C=CC3(CN(C/C=C/c4ccccc4)C(=O)C13)O2 (stereo not drawn),–,13.9,–
CCCc1c(C(=O)N/N=C/c2ccncc2)nnn1-c1nonc1N,"0.731 µM [rising, single point]",–,–
COc1ccc(N2C(=O)C(=O)/C(=C(/O)c3ccc(C)cc3)C2c2cccnc2)cc1 (stereo not drawn),"29.1 µM [rising, single point]",34.7,–
FC(F)(F)c1ccccc1-n1ccnc1,–,4.03,"0.58 µM [rising, single point]"
CCCCNCc1nc2ccccc2c(=O)[nH]1,"0.231 µM [rising, full curve, poor fit]",–,–
Cc1cc2nc(-c3ccc(SCC(=O)Nc4nccs4)nc3)[nH]c2cc1C,"0.82 µM [rising, partial curve, poor fit]",-1.71,"3.66 µM [rising, single point]"
COc1ccc(CCN2C(=O)C3C4CCC(C4=C(C)C)C3C2=O)cc1OC (stereo not drawn),–,11.8,"29.1 µM [rising, single point]"

SMILES,AC50 [1],cell number change [%],AC50 [2]
COC(=O)c1ccc(OCC(O)CN(CC(C)C)CC(C)C)cc1 (stereo not drawn),–,-13.2,"4.61 µM [rising, single point]"
Cc1ccc(C)c(NC(=O)CN(C)C(=O)Cn2c(=O)oc3ccccc32)c1,–,7.86,"0.116 µM [rising, full curve, poor fit]"
Cc1cc(NC(=O)c2c(Cl)c(C)nn2C)no1,–,-19,–
Cc1ccc(NC(=O)c2cccc(S(=O)(=O)N3CCCC3)c2)nc1,–,–,"5.8 µM [rising, single point]"
O=C(O)c1ccc(S(=O)(=O)c2ccc3c(c2)C(=O)N(NC(=O)c2ccncc2)C3=O)cc1,–,23.3,"29.1 µM [rising, single point]"
CSCC[C@H](NC(=O)OC(C)(C)C)c1nnc(SCC(=O)Nc2ccc(C)cc2C)o1,–,-13.4,"0.164 µM [rising, full curve, poor fit]"
COC(=O)C1=C(C)N(Cc2ccccc2)C(=NCCCCO)N[C@H]1c1cccc(C(F)(F)F)c1,–,11.4,–
CCOC(=O)c1cc(NC(=O)SCC(=O)O)c(C)nc1C,"1.46 µM [rising, partial curve]",–,"1.46 µM [rising, partial curve]"
CCC(=O)Nc1ccc2c(c1)nc(CCN1CCC(C)CC1)n2C,"0.092 µM [rising, full curve, poor fit]",65.8,–
CCN(CC)C(=O)c1ccc2nc3ccccc3nc2c1,"3.66 µM [rising, single point]",–,"0.0058 µM [rising, full curve, poor fit]"
O=C(NCc1nnc(SCC(=O)N2CCN(c3ccccc3)CC2)o1)c1c(F)cccc1F,–,–,"7.08 µM [falling, partial curve]"
N#CCCN(C(=O)COC(=O)CCNS(=O)(=O)c1ccccc1)c1ccccc1,–,13.5,"0.13 µM [rising, full curve, poor fit]"
CN(C)S(=O)(=O)c1ccc(N2CCCC2)c(C(=O)NC2CCC(O)CC2)c1 (stereo not drawn),"16.4 µM [rising, single point]",44,–
COCCN(CCOC)C(=O)c1c[nH]c2ccc(S(=O)(=O)N(C)c3ccc(F)cc3)cc2c1=O,–,-17.1,"8.2 µM [rising, partial curve, poor fit]"
O=C(Nc1cn(-c2ccccc2)nc1-c1ccc(Cl)cc1)c1ccccc1,–,6.96,–
CC(C)(C)C(=O)/C(=C\c1cccc([N+](=O)[O-])c1)n1cncn1,"7.31 µM [falling, partial curve]",-79.8,"3.26 µM [falling, full curve]"
CCOC(=O)c1c(C)oc2c1cc(NS(=O)(=O)c1ccc(C(=O)O)cc1)c1ccccc12,–,–,"0.00461 µM [rising, partial curve, poor fit]"
COC(=O)CC1C(=O)NCCN1C(=S)NC(=O)CCc1ccccc1 (stereo not drawn),–,-4.23,"0.1 µM [rising, full curve, poor fit]"

# Sorted by length of the SMILES (descending): part of the list above.
SMILES,AC50 [1],cell number change [%],AC50 [2]
O=C(O)c1ccc(S(=O)(=O)c2ccc3c(c2)C(=O)N(NC(=O)c2ccncc2)C3=O)cc1,–,23.3,"29.1 µM [rising, single point]"
COCCN(CCOC)C(=O)c1c[nH]c2ccc(S(=O)(=O)N(C)c3ccc(F)cc3)cc2c1=O,–,-17.1,"8.2 µM [rising, partial curve, poor fit]"
CCOC(=O)c1c(C)oc2c1cc(NS(=O)(=O)c1ccc(C(=O)O)cc1)c1ccccc12,–,–,"0.00461 µM [rising, partial curve, poor fit]"
CSCC[C@H](NC(=O)OC(C)(C)C)c1nnc(SCC(=O)Nc2ccc(C)cc2C)o1,–,-13.4,"0.164 µM [rising, full curve, poor fit]"
O=C(NCc1nnc(SCC(=O)N2CCN(c3ccccc3)CC2)o1)c1c(F)cccc1F,–,–,"7.08 µM [falling, partial curve]"
CN(C)S(=O)(=O)c1ccc(N2CCCC2)c(C(=O)NC2CCC(O)CC2)c1 (stereo not drawn),"16.4 µM [rising, single point]",44,–
CC(C)(C)C(=O)/C(=C\c1cccc([N+](=O)[O-])c1)n1cncn1,"7.31 µM [falling, partial curve]",-79.8,"3.26 µM [falling, full curve]"
Cc1ccc(C)c(NC(=O)CN(C)C(=O)Cn2c(=O)oc3ccccc32)c1,–,7.86,"0.116 µM [rising, full curve, poor fit]"
Cc1cc2nc(-c3ccc(SCC(=O)Nc4nccs4)nc3)[nH]c2cc1C,"0.82 µM [rising, partial curve, poor fit]",-1.71,"3.66 µM [rising, single point]"
O=C(Nc1cn(-c2ccccc2)nc1-c1ccc(Cl)cc1)c1ccccc1,–,6.96,–
Cc1ccc(NC(=O)c2cccc(S(=O)(=O)N3CCCC3)c2)nc1,–,–,"5.8 µM [rising, single point]"
COC(=O)CC1C(=O)NCCN1C(=S)NC(=O)CCc1ccccc1 (stereo not drawn),–,-4.23,"0.1 µM [rising, full curve, poor fit]"
COC(=O)c1ccc(OCC(O)CN(CC(C)C)CC(C)C)cc1 (stereo not drawn),–,-13.2,"4.61 µM [rising, single point]"
CCOC(=O)c1cc(NC(=O)SCC(=O)O)c(C)nc1C,"1.46 µM [rising, partial curve]",–,"1.46 µM [rising, partial curve]"
CCN(CC)C(=O)c1ccc2nc3ccccc3nc2c1,"3.66 µM [rising, single point]",–,"0.0058 µM [rising, full curve, poor fit]"
Cc1cc(NC(=O)c2c(Cl)c(C)nn2C)no1,–,-19,–
CCCCNCc1nc2ccccc2c(=O)[nH]1,"0.231 µM [rising, full curve, poor fit]",–,–
